From article PMC3694860 come the findings set out here.

Where two headings read alike, the source gives them in different places. These are yes or no findings as the source states them, for the method shown. Binding seen in cells or lysates may run through a third protein. Some entries that bind do so weakly or less than the wild type.

Assay [1] concerns the target T1, NS1-binding protein (NS1-BP) (human (endogenous in HeLa and A549)) (UniProt Q9Y6Y0).
T1 sequence: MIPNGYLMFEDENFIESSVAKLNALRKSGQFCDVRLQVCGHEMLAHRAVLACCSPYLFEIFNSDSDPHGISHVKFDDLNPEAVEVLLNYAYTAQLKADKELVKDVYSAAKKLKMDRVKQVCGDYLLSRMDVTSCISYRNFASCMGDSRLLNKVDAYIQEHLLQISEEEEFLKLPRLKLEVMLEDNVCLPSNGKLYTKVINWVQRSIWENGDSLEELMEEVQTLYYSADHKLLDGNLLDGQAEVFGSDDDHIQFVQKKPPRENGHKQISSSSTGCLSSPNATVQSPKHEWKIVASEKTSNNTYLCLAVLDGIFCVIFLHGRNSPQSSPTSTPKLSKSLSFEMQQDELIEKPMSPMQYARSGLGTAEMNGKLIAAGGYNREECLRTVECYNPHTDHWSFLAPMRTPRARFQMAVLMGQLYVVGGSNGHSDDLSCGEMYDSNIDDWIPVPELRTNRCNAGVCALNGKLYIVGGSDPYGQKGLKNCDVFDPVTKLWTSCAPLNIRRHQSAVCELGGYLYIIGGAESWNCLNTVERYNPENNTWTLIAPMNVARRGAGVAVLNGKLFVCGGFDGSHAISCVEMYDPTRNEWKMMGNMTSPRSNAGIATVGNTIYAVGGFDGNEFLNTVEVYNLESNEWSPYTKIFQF

For assay [2], the target named is T1, NS1-binding protein (NS1-BP) (human (endogenous in HeLa and A549)). This is another data set of the same source.

Consider “heterogeneous nuclear ribonucleoprotein K (hnRNP K) (from UniProt P61978 1-463)”, for which the binding result in assay [1] and in assay [2] was “binds” each time.

B1: heterogeneous nuclear ribonucleoprotein M (hnRNP M) (protein, UniProt P52272 1-730)
chain: MAAGVEAAAEVAATEIKMEEESGAPGVPSGNGAPGPKGEGERPAQNEKRKEKNIKRGGNRFEPYANPTKRYRAFITNIPFDVKWQSLKDLVKEKVGEVTYVELLMDAEGKSRGCAVVEFKMEESMKKAAEVLNKHSLSGRPLKVKEDPDGEHARRAMQKVMATTGGMGMGPGGPGMITIPPSILNNPNIPNEIIHALQAGRLGSTVFVANLDYKVGWKKLKEVFSMAGVVVRADILEDKDGKSRGIGTVTFEQSIEAVQAISMFNGQLLFDRPMHVKMDERALPKGDFFPPERPQQLPHGLGGIGMGLGPGGQPIDANHLNKGIGMGNIGPAGMGMEGIGFGINKMGGMEGPFGGGMENMGRFGSGMNMGRINEILSNALKRGEIIAKQGGGGGGGSVPGIERMGPGIDRLGGAGMERMGAGLGHGMDRVGSEIERMGLVMDRMGSVERMGSGIERMGPLGLDHMASSIERMGQTMERIGSGVERMGAGMGFGLERMAAPIDRVGQTIERMGSGVERMGPAIERMGLSMERMVPAGMGAGLERMGPVMDRMATGLERMGANNLERMGLERMGANSLERMGLERMGANSLERMGPAMGPALGAGIERMGLAMGGGGGASFDRAIEMERGNFGGSFAGSFGGAGGHAPGVARKACQIFVRNLPFDFTWKMLKDKFNECGHVLYADIKMENGKSKGCGVVKFESPEVAERACRMMNGMKLSGREIDVRIDRNA
In the case of B1, the binding entry in assay [1] and in assay [2] was “binds” throughout.
